According to the supplement of paper PMC12593923:
Counter-ions that a name gives are not always drawn. Some well-known active drugs show little effect in this data set, so a weak value is uncertain.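 All three lines are high-grade serous ovarian cancer cells differing in chemosensitivity, with OVCAR3 described as the chemosensitive one. Toxicity was scaled between DMSO vehicle wells and fully lysed wells, the score derives from a fitted multi-dose response curve, and the authors counted a score above 5 as drug sensitivity.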

Key:
Assay in all cases: drug sensitivity score (DSS2, cytotoxicity, CellTox Green); higher = more cytotoxic / more sensitive; extreme values may be limits of the assay
Conditions in all cases: 72 h; doses 0.5, 1, 5 µM
Kuramochi = test system: Kuramochi
OVCAR3 = test system: OVCAR3
OVCAR4 = test system: OVCAR4

Row | Compound | drug sensitivity score (Kuramochi) | drug sensitivity score (OVCAR3) | drug sensitivity score (OVCAR4)
1 | COc1cc(NS(C)(=O)=O)ccc1Nc1c2ccccc2nc2ccccc12 [Amsacrine (hydrochloride)] | 0 DSS | 0 DSS | 0 DSS
2 | CC1(C)CC[C@]2(C(=O)O)CC[C@]3(C)C(=CC[C@@H]4[C@@]5(C)CC[C@H](O)C(C)(C)[C@@H]5CC[C@]43C)[C@@H]2C1 [Oleanolic Acid] | 0 DSS | 0 DSS | 0 DSS
3 | Cc1cnc(Nc2ccc(OCCN3CCCC3)cc2)nc1Nc1cccc(S(=O)(=O)NC(C)(C)C)c1 [Fedratinib (hydrochloride hydrate)] | 1.2 DSS | 0 DSS | 0 DSS
4 | CCc1ccc(CCOc2ccc(CC3SC(=O)NC3=O)cc2)nc1 (stereo unspecified) [Pioglitazone (hydrochloride)] | 0 DSS | 0 DSS | 0 DSS
5 | Clc1ccccc1C(c1ccccc1)(c1ccccc1)n1ccnc1 [Clotrimazole] | 0 DSS | 0 DSS | 0 DSS
6 | CN(C)C/C=C/C(=O)Nc1cc2c(Nc3ccc(F)c(Cl)c3)ncnc2cc1O[C@H]1CCOC1 [Afatinib (dimaleate)] | 0 DSS | 0 DSS | 0 DSS
7 | CS(=O)(=O)CCNCc1ccc(-c2ccc3ncnc(Nc4ccc(OCc5cccc(F)c5)c(Cl)c4)c3c2)o1 [Lapatinib (ditosylate)] | 0 DSS | 2.7 DSS | 0 DSS
8 | COC1=CC(=O)C[C@@H](C)[C@]12Oc1c(Cl)c(OC)cc(OC)c1C2=O [Griseofulvin] | 0 DSS | 0 DSS | 0 DSS
9 | CCCc1nn(C)c2c(=O)[nH]c(-c3cc(S(=O)(=O)N4CCN(C)CC4)ccc3OCC)nc12 [Sildenafil (citrate)] | 0 DSS | 0 DSS | 0.3 DSS
10 | CCN(CC)C(=S)SSC(=S)N(CC)CC [Disulfiram] | 0 DSS | 0 DSS | 0 DSS
11 | COc1nc(N)nc2c1ncn2[C@@H]1O[C@H](CO)[C@@H](O)[C@@H]1O [Nelarabine] | 0 DSS | 0 DSS | 0 DSS
12 | C[C@]12CC[C@@H]3c4ccc(OC(=O)N(CCCl)CCCl)cc4CC[C@H]3[C@@H]1CC[C@@H]2OP(=O)(O)O [Estramustine (phosphate sodium)] | 0 DSS | 0 DSS | 0 DSS
13 | COc1cc(CNC(=O)CCCC/C=C/C(C)C)ccc1O [Capsaicin] | 0 DSS | 0 DSS | 0 DSS
14 | CCOc1cc(/C=C2/C(=O)N(c3ccccc3)N=C2C)cc(Cl)c1OCC(=O)OC | 0 DSS | 0 DSS | 0 DSS
15 | Cc1nc(=O)c2cc(CN(C)c3ccc(C(=O)N[C@@H](CCC(=O)O)C(=O)O)s3)ccc2[nH]1 [Raltitrexed] | 0 DSS | 0 DSS | 0 DSS
16 | CNC(=O)c1cc(Oc2ccc(NC(=O)Nc3ccc(Cl)c(C(F)(F)F)c3)c(F)c2)ccn1 [Regorafenib (monohydrate)] | 0 DSS | 0 DSS | 0 DSS
17 | Cc1ncc(CO)c(CO)c1O [Metadoxine] | 0 DSS | 0 DSS | 0 DSS
18 | Nc1nc2[nH]cc(CCc3ccc(C(=O)N[C@@H](CCC(=O)O)C(=O)O)cc3)c2c(=O)[nH]1 [Pemetrexed (disodium)] | 0 DSS | 0.6 DSS | 0.4 DSS
19 | CC[C@@]1(O)C(=O)OCc2c1cc1n(c2=O)Cc2cc3c(CN(C)C)c(O)ccc3nc2-1 [Topotecan (Hydrochloride)] | 4.9 DSS | 2.3 DSS | 2.3 DSS
20 | CNC(=O)c1ccc(N2C(=S)N(c3ccc(C#N)c(C(F)(F)F)c3)C(=O)C2(C)C)cc1F [Enzalutamide] | 0 DSS | 0 DSS | 0 DSS
21 | CC(=O)O[C@@]12CO[C@@H]1C[C@H](O)[C@@]1(C)C(=O)[C@H](O)C3=C(C)[C@@H](OC(=O)[C@H](O)[C@@H](NC(=O)OC(C)(C)C)c4ccccc4)C[C@@](O)([C@@H](OC(=O)c4ccccc4)[C@H]21)C3(C)C [Docetaxel] | 1.6 DSS | 1.4 DSS | 0 DSS
22 | CC(=O)O[C@H]1C(=O)[C@@]2(C)[C@H]([C@H](OC(=O)c3ccccc3)[C@]3(O)C[C@H](OC(=O)[C@H](O)[C@@H](NC(=O)c4ccccc4)c4ccccc4)C(C)=C1C3(C)C)[C@]1(OC(C)=O)CO[C@@H]1C[C@@H]2O [Paclitaxel] | 0.8 DSS | 1.6 DSS | 0 DSS
23 | CN1CCN(c2ccc(C(=O)Nc3n[nH]c4ccc(Cc5cc(F)cc(F)c5)cc34)c(NC3CCOCC3)c2)CC1 [Entrectinib] | 0.3 DSS | 0.1 DSS | 0 DSS
24 | CCCCCCCCCCC[C@@H](C[C@@H]1OC(=O)[C@H]1CCCCCC)OC(=O)[C@H](CC(C)C)NC=O [Orlistat] | 0 DSS | 0 DSS | 0 DSS

Exported as a markdown table: part of the list above

| Row | Compound | drug sensitivity score (Kuramochi) | drug sensitivity score (OVCAR3) | drug sensitivity score (OVCAR4) |
| --- | --- | --- | --- | --- |
| 1 | COc1cc(NS(C)(=O)=O)ccc1Nc1c2ccccc2nc2ccccc12 [Amsacrine (hydrochloride)] | 0 DSS | 0 DSS | 0 DSS |
| 2 | CC1(C)CC[C@]2(C(=O)O)CC[C@]3(C)C(=CC[C@@H]4[C@@]5(C)CC[C@H](O)C(C)(C)[C@@H]5CC[C@]43C)[C@@H]2C1 [Oleanolic Acid] | 0 DSS | 0 DSS | 0 DSS |
| 3 | Cc1cnc(Nc2ccc(OCCN3CCCC3)cc2)nc1Nc1cccc(S(=O)(=O)NC(C)(C)C)c1 [Fedratinib (hydrochloride hydrate)] | 1.2 DSS | 0 DSS | 0 DSS |
| 4 | CCc1ccc(CCOc2ccc(CC3SC(=O)NC3=O)cc2)nc1 (stereo unspecified) [Pioglitazone (hydrochloride)] | 0 DSS | 0 DSS | 0 DSS |
| 9 | CCCc1nn(C)c2c(=O)[nH]c(-c3cc(S(=O)(=O)N4CCN(C)CC4)ccc3OCC)nc12 [Sildenafil (citrate)] | 0 DSS | 0 DSS | 0.3 DSS |
| 11 | COc1nc(N)nc2c1ncn2[C@@H]1O[C@H](CO)[C@@H](O)[C@@H]1O [Nelarabine] | 0 DSS | 0 DSS | 0 DSS |
| 12 | C[C@]12CC[C@@H]3c4ccc(OC(=O)N(CCCl)CCCl)cc4CC[C@H]3[C@@H]1CC[C@@H]2OP(=O)(O)O [Estramustine (phosphate sodium)] | 0 DSS | 0 DSS | 0 DSS |
| 13 | COc1cc(CNC(=O)CCCC/C=C/C(C)C)ccc1O [Capsaicin] | 0 DSS | 0 DSS | 0 DSS |
| 14 | CCOc1cc(/C=C2/C(=O)N(c3ccccc3)N=C2C)cc(Cl)c1OCC(=O)OC | 0 DSS | 0 DSS | 0 DSS |
| 15 | Cc1nc(=O)c2cc(CN(C)c3ccc(C(=O)N[C@@H](CCC(=O)O)C(=O)O)s3)ccc2[nH]1 [Raltitrexed] | 0 DSS | 0 DSS | 0 DSS |
| 16 | CNC(=O)c1cc(Oc2ccc(NC(=O)Nc3ccc(Cl)c(C(F)(F)F)c3)c(F)c2)ccn1 [Regorafenib (monohydrate)] | 0 DSS | 0 DSS | 0 DSS |
| 21 | CC(=O)O[C@@]12CO[C@@H]1C[C@H](O)[C@@]1(C)C(=O)[C@H](O)C3=C(C)[C@@H](OC(=O)[C@H](O)[C@@H](NC(=O)OC(C)(C)C)c4ccccc4)C[C@@](O)([C@@H](OC(=O)c4ccccc4)[C@H]21)C3(C)C [Docetaxel] | 1.6 DSS | 1.4 DSS | 0 DSS |

Further results follow:

Row | Compound | drug sensitivity score (Kuramochi) | drug sensitivity score (OVCAR3) | drug sensitivity score (OVCAR4)
25 | CCCOc1ccc(C(=O)OCCN(CC)CC)cc1N [Proparacaine (Hydrochloride)] | 0 DSS | 0 DSS | 0 DSS
26 | O=C(O)c1ccc(-n2nc(-c3ccccc3O)nc2-c2ccccc2O)cc1 [Deferasirox] | 0 DSS | 0 DSS | 0 DSS
27 | N[C@@H](CCC(=O)O)C(=O)[O-].[Na+] [L-Glutamic acid (monosodium salt)] | 0 DSS | 0 DSS | 0 DSS
28 | COc1cc(C(=O)O)ccc1NC(=O)[C@@H]1N[C@@H](CC(C)(C)C)[C@](C#N)(c2ccc(Cl)cc2F)[C@H]1c1cccc(Cl)c1F [Idasanutlin] | 0 DSS | 0 DSS | 0 DSS
29 | CCc1oc2ccccc2c1C(=O)c1cc(Br)c(O)c(Br)c1 [Benzbromarone] | 0 DSS | 0 DSS | 0 DSS
30 | N#Cc1ccc(C(c2ccc(C#N)cc2)n2cncn2)cc1 [Letrozole] | 0 DSS | 0 DSS | 0 DSS
31 | O=S(=O)(c1cccc2c(O)nccc12)N1CCCNCC1 [Hydroxyfasudil (hydrochloride)] | 0.9 DSS | 2.7 DSS | 2.7 DSS
32 | C=CCN1C[C@H](C(=O)N(CCCN(C)C)C(=O)NCC)C[C@@H]2c3cccc4[nH]cc(c34)C[C@H]21 [Cabergoline] | 0 DSS | 0 DSS | 0 DSS
33 | COC(=O)C1=C(C)NC(C)=C(C(=O)OC(C)C)C1c1cccc2nonc12 (stereo unspecified) [Isradipine] | 0 DSS | 0 DSS | 0 DSS
34 | C[C@H](CCC(=O)O)[C@H]1CC[C@H]2[C@@H]3[C@H](O)C[C@@H]4C[C@H](O)CC[C@]4(C)[C@H]3CC[C@]12C [Chenodeoxycholic Acid] | 0 DSS | 0 DSS | 0 DSS
35 | CC(C(=O)O)c1ccc2c(c1)Cc1cccnc1O2 (stereo unspecified) [Pranoprofen] | 0 DSS | 0 DSS | 0 DSS
36 | CCCCCCCC/C=C\CCCCCCCC(=O)O [Oleic acid] | 0 DSS | 0 DSS | 0 DSS
37 | CCC(C)n1ncn(-c2ccc(N3CCN(c4ccc(OCC5COC(Cn6cncn6)(c6ccc(Cl)cc6Cl)O5)cc4)CC3)cc2)c1=O (stereo unspecified) [Itraconazole] | 0 DSS | 0 DSS | 0 DSS
38 | C[C@]12CCC3=C4CCC(=O)C=C4CC[C@H]3[C@@H]1CC[C@@]2(O)CC#N [Dienogest] | 0 DSS | 0.4 DSS | 0 DSS
39 | COC(=O)Nc1nc2cc(C(=O)c3ccccc3)ccc2[nH]1 [Mebendazole] | 1.9 DSS | 3.6 DSS | 0 DSS
40 | CC(C)(C)c1nc(-c2cccc(NS(=O)(=O)c3c(F)cccc3F)c2F)c(-c2ccnc(N)n2)s1 [Dabrafenib] | 0 DSS | 0 DSS | 0 DSS
41 | COc1cc2/c(=N/c3ccc(Br)cc3F)nc[nH]c2cc1OCC1CCN(C)CC1 [Vandetanib] | 0 DSS | 0 DSS | 0 DSS
42 | CN(C)C(=O)c1cc2cnc(Nc3ccc(N4CCNCC4)cn3)nc2n1C1CCCC1 [Ribociclib] | 0 DSS | 0.7 DSS | 0 DSS
43 | CC(C)(CO)[C@@H](O)C(=O)NCCC(=O)O [D-Pantothenic acid (sodium)] | 0 DSS | 0 DSS | 0 DSS
44 | C#CCC(Cc1cnc2nc(N)nc(N)c2n1)c1ccc(C(=O)N[C@@H](CCC(=O)O)C(=O)O)cc1 (stereo partly specified) [Pralatrexate] | 0 DSS | 0 DSS | 0 DSS
45 | O=C(c1ccc(F)cc1)C1CCN(CCn2c(=O)[nH]c3ccccc3c2=O)CC1 [Ketanserin] | 0 DSS | 0 DSS | 0 DSS
46 | CN(C)C/C=C/C(=O)Nc1cc2c(Nc3ccc(F)c(Cl)c3)ncnc2cc1O[C@H]1CCOC1 [Afatinib] | 0 DSS | 0 DSS | 0 DSS
47 | COc1ccc(C(=O)CC(=O)c2ccc(C(C)(C)C)cc2)cc1 [Avobenzone] | 0.1 DSS | 1.5 DSS | 0 DSS
